Results as given in the supplement of paper PMC10849652.
The list shows a part of the results.

Protein sequences, listed by entry. Tags and fused reporters are not part of them. Lines headed by an entry give the natural chain unless they say otherwise; changes in a name come on top.
UniProt O75071: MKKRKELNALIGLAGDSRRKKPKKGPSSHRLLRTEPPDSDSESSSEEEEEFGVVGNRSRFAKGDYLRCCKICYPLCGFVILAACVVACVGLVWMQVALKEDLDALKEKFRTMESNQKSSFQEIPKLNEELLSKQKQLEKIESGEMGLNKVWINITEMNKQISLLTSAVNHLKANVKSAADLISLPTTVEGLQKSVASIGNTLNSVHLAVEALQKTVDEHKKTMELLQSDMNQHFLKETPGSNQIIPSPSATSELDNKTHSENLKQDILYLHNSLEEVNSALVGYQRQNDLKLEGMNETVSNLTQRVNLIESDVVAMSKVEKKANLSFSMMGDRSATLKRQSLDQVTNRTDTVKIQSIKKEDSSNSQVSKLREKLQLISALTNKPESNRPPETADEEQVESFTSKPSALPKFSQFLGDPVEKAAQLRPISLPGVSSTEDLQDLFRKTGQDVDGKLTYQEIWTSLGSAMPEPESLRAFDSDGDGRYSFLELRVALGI
UniProt Q96FN9: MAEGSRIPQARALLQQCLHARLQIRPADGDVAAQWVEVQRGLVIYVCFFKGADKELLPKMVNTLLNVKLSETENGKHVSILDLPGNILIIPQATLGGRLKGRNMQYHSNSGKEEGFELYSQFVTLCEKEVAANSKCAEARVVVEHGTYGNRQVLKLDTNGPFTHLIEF
UniProt Q9H2P9: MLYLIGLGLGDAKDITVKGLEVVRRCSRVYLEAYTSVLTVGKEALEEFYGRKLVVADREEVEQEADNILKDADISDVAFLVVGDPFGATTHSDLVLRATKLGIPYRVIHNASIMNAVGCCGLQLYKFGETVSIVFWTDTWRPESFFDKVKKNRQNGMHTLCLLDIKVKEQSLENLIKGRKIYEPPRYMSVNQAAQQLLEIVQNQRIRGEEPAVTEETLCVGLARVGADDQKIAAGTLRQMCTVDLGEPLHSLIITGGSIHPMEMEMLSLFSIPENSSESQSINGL
UniProt Q15125: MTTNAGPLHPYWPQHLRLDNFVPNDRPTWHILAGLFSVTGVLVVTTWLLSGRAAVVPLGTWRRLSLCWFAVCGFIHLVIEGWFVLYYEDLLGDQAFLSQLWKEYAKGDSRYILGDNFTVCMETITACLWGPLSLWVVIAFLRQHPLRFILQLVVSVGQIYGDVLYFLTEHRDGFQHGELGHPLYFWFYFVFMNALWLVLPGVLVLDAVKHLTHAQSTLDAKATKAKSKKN
UniProt P30084: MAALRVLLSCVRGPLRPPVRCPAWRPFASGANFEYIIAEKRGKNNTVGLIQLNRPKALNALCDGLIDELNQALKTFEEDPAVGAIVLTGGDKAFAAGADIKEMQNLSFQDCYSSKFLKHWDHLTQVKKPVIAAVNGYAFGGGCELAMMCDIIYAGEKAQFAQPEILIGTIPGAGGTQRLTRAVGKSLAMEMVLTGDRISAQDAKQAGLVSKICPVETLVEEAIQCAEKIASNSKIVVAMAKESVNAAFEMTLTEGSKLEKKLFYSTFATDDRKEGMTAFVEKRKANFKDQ
UniProt Q05639, whole entry, looked up: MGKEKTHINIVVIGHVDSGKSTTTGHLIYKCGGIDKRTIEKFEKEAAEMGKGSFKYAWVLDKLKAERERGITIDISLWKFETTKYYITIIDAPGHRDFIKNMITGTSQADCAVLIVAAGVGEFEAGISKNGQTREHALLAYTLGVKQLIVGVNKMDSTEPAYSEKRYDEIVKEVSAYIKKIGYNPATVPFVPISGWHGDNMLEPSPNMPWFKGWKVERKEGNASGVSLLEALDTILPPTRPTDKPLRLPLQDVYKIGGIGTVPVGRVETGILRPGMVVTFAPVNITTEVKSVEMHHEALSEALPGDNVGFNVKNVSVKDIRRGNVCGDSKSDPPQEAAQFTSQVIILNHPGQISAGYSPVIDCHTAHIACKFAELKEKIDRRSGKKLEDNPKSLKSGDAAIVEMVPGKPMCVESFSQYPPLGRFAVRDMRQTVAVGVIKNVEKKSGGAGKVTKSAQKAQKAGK
UniProt Q15075: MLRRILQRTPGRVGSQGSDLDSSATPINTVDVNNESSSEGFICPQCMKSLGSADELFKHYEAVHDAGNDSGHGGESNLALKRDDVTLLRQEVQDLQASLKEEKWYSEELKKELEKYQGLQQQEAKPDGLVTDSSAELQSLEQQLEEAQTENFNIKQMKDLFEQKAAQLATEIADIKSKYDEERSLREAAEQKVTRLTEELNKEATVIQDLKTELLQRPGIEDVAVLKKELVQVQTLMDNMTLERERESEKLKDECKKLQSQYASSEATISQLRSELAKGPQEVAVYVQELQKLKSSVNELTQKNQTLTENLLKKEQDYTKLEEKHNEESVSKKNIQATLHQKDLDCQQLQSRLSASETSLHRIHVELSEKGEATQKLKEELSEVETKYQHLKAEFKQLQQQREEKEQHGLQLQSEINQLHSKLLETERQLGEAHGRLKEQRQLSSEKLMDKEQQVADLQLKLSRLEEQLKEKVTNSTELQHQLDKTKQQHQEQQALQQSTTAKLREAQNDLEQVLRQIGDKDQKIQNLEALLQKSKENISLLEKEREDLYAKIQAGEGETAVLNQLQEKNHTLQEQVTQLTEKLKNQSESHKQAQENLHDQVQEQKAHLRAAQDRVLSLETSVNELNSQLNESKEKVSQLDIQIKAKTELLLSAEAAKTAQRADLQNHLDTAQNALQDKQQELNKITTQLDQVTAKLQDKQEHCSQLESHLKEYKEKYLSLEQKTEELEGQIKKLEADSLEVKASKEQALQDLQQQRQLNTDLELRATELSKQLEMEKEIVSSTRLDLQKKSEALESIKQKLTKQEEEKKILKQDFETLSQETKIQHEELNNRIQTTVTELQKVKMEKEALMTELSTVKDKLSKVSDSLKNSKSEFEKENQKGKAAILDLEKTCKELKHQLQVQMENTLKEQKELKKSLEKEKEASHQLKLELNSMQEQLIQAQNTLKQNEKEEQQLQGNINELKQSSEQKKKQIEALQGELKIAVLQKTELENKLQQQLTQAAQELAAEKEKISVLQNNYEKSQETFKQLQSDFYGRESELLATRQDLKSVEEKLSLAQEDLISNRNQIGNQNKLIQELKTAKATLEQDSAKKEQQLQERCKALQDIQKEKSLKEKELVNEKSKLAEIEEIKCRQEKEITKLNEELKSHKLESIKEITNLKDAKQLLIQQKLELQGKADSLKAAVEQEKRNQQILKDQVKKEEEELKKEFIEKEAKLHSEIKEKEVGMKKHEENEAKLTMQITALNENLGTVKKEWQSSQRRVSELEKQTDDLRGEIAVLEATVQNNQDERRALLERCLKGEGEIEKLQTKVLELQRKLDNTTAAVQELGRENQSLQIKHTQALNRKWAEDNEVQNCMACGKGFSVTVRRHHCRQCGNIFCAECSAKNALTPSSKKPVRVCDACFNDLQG
UniProt Q13409, whole entry, looked up: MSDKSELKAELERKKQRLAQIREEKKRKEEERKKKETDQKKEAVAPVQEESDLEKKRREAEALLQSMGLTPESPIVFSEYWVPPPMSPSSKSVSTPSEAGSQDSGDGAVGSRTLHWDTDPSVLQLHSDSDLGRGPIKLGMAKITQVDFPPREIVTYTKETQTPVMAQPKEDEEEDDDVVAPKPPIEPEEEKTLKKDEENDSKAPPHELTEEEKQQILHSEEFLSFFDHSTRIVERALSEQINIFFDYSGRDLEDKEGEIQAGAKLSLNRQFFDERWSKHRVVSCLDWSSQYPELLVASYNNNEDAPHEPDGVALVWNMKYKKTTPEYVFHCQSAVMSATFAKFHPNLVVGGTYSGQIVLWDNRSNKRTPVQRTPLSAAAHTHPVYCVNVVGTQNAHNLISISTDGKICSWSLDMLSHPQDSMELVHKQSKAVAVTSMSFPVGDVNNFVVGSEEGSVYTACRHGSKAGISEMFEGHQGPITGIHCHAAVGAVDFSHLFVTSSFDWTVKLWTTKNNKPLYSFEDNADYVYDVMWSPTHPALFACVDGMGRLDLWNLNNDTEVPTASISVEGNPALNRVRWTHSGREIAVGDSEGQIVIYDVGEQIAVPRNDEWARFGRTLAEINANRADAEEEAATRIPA
UniProt P55039: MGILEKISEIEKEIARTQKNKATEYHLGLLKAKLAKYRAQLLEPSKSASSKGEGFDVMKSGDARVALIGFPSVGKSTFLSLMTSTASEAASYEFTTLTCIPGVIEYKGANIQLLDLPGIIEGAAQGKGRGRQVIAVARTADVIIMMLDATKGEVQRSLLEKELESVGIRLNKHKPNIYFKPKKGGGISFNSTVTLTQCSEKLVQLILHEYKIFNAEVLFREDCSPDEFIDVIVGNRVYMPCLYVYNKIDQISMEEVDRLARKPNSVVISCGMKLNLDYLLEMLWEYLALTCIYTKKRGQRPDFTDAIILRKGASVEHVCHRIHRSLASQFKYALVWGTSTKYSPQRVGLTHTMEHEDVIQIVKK
UniProt O75923: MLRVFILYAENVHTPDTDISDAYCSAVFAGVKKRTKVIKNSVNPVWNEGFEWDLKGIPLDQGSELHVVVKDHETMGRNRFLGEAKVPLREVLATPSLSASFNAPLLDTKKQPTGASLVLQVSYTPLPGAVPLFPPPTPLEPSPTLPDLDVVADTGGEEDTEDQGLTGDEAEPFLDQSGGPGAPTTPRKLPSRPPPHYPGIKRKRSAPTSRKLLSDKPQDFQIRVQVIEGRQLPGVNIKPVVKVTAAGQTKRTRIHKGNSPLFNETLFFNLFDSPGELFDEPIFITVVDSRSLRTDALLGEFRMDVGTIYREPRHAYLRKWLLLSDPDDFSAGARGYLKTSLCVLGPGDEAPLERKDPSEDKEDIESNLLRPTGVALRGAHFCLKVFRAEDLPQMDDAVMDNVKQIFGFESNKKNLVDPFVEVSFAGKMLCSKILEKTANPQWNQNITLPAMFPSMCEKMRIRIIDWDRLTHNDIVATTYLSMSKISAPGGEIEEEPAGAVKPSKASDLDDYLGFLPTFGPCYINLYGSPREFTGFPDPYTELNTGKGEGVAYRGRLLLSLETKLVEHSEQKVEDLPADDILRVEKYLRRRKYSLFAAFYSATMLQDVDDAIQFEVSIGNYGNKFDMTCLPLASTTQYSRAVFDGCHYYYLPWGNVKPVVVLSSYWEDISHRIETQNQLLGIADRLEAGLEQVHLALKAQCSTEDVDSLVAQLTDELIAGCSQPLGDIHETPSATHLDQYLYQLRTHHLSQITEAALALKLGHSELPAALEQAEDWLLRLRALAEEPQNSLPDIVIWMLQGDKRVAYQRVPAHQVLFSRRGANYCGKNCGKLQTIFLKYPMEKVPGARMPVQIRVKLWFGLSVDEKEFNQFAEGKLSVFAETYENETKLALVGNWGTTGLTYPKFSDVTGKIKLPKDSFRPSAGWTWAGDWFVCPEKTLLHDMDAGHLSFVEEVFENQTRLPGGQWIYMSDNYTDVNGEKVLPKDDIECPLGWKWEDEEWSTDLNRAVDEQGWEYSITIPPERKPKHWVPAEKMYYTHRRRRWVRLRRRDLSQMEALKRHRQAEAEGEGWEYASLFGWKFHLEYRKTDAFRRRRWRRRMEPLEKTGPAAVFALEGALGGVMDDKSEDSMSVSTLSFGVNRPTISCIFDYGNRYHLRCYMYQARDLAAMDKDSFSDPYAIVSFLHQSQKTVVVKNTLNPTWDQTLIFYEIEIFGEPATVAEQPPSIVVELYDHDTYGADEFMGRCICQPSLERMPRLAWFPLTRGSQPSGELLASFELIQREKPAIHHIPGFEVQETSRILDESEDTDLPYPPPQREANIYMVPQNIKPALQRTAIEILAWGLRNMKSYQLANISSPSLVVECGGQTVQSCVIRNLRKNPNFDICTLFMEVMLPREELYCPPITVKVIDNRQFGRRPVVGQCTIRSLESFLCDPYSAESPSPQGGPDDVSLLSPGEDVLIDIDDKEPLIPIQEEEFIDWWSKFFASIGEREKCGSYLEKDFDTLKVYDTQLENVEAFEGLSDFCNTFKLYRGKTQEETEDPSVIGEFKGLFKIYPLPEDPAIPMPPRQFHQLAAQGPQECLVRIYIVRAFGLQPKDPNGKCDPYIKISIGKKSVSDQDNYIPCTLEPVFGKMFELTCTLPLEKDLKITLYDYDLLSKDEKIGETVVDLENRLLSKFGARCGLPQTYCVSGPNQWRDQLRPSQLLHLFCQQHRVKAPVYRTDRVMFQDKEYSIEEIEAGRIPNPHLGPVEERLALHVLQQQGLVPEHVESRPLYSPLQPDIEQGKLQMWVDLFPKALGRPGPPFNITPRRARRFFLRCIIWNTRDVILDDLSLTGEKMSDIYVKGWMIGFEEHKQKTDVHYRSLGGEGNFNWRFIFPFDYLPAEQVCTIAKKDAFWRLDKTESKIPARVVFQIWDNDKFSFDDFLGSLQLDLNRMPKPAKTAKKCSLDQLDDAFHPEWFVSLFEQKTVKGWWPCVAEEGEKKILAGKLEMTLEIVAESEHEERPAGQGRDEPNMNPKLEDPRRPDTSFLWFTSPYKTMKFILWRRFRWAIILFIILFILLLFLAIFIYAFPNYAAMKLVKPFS

What was measured:
Test in all cases: log2 fold change, soluble protein after heating vs DMSO (PISA); higher = thermal stabilisation; K562 lysate, 10 uM; active = over 0.2 and 3.5 SD of the protein, either way, in both replicates (recomputed)
[1] = compound: C#Cc1cccc(Nc2ncnc3cc(OCCOC)c(OCCOC)cc23)c1 [erlotinib]
Outline: (§1)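 Soluble protein was defined as the supernatant remaining after 21,000xg for 90 min, following pooling of heated aliquots and adjustment to 0.5% NP-40 at 4°C. Before that, crude K562 extract at 1 mg/mL protein in PBS pH 7.4 with 1 mM MgCl2 was treated with 10 μM compound for 30 min and heated for 3 min across 48°C-58°C. Quantification used TMTpro 16plex LC-MS/MS with channel sums equalised, and values are log-two fold changes in thermal stability relative to solvent controls from duplicates.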

[2] = compound: C/C(=N\NC(=O)C1=CC(=CC=C1)S(=O)(=O)N2CCOCC2)/C3=C(C=CC(=C3)Cl)O
Outline: as §1

[3] = compound: C1=CC(=CC=C1C2=NC3=C(N2)C=C(C=C3)C(=O)N)OC4=CC=C(C=C4)Cl
Outline: as §1

[4] = compound: C1=CC2=C(C=CC(=C2)/C=C\3/C(=O)NC(=NCC4=CC=CS4)S3)N=C1
Outline: as §1

[5] = compound: C1=CC2=NC=CN=C2C=C1/C=C/3\C(=O)NC(=O)S3
Outline: as §1

[6] = compound: C1=CC=C(C=C1)C2=NC(=C(N2)C3=CC=NC=C3)C4=CC(=C(C=C4)Cl)O
Outline: as §1

[7] = compound: C1=CC=C2C(=C1)C3=NNC4=CC=CC(=C43)C2=O
Outline: as §1

[8] = compound: C1CCN(C1)C(=O)NC2=CC=CC(=C2)NC3=NC=C(C(=N3)NCCC4=CN=CN4)Br
Outline: as §1

[9] = compound: C1CN(CCC1(CC2=CC=C(C=C2)Cl)N)C3=NC=NC4=C3C=CN4
Outline: as §1

[10] = compound: C1COCCN1CCN2C3=CC=CC=C3N=C2NC(=O)C4=CC(=CC=C4)[N+](=O)[O-] [IRAK-1-4 Inhibitor I]
Outline: as §1

[11] = compound: C=CC(=O)N1CCC[C@@H](n2nc(-c3ccc(Oc4ccccc4)cc3)c3c(N)ncnc32)C1 [ibrutinib]
Outline: as §1

[12] = compound: CC(=O)c1cnc2ccc(-c3cc(Cl)c(O)c(Cl)c3)nc2c1N[C@H]1CC[C@H](CN(C)C)CC1
Outline: as §1

[13] = compound: CC(C)(C)Cn1c(N)nc2ccc(-c3[nH]c(C(C)(C)C)nc3-c3ccc(F)cc3)nc21 [ralimetinib]
Outline: as §1

[14] = compound: CC(C)(O)CC(=O)NCCn1ccc2ncnc(Nc3ccc(Oc4cccc(C(F)(F)F)c4)c(Cl)c3)c21
Outline: as §1

[15] = compound: CC(C)C1=C2N=C(C=C(N2N=C1)NCC3=CC=CC=C3)NCCCCCCN
Outline: as §1

[16] = compound: CC1=C(C(CC(=O)N1)C2=CC=C(C=C2)C(F)(F)F)C(=O)NC3=C(C=C4C(=C3)C=NN4)F
Outline: as §1

[17] = compound: CC1=C(C2=C(C=C1)C(=O)C3=CC=CC=C3N2CCCN)C
Outline: as §1

[18] = compound: CC1=C(C=C(C=C1)NC(=O)C2=CC(=CC=C2)C(C)(C)C#N)NC3=CC4=C(C=C3)N=CN(C4=O)C
Outline: as §1

[19] = compound: CC1=C(C=C(C=C1)NC(=O)C2=CC(=CC=C2)N(C)C)NC(=O)C3=CC=C(C=C3)O
Outline: as §1

[20] = compound: CC1=CC=C(C=C1)SC2=C3C=C(SC3=CN=C2)C(=O)N
Outline: as §1

Measured: log2 fold change

EFCAB14 (UniProt O75071)
inactive: [1] 0.019 | [2] 0.115 | [3] 0.043 | [4] -0.036 | [5] -0.019 | [6] -0.042 | [7] -0.022 | [8] 0.01 | [9] 0.042 | [10] 0.011 | [11] 0.026 | [12] 0.015 | [13] 0.055 | [14] -0.075 | [15] -0.045 | [16] 0.077 | [17] 0.02 | [18] 0.011 | [19] 0.016 | [20] 0.012

DTD2 (UniProt Q96FN9)
inactive: [1] -0.138 | [2] -0.074 | [3] -0.001 | [4] -0.1 | [5] 0.144 | [6] 0.053 | [7] 0.01 | [8] 0.032 | [9] -0.023 | [10] -0.151 | [11] -0.188 | [12] -0.099 | [13] 0.077 | [14] -0.225 | [15] -0.087 | [17] 0.038 | [18] -0.024 | [19] -0.033 | [20] 0.124

E2F3 (UniProt O00716)
inactive: [1] -0.014 | [2] 0.093 | [3] -0.023 | [4] -0.032 | [5] -0.013 | [6] 0.039 | [7] 0.015 | [8] 0.005 | [9] 0.092 | [10] 0.022 | [11] 0.012 | [12] -0.028 | [13] 0.001 | [14] -0.059 | [15] -0.024 | [16] -0.09 | [17] 0.031 | [18] 0.053 | [19] 0.013 | [20] -0.142

DPH2 (UniProt Q9BQC3)
inactive: [1] -0.029 | [2] -0.03 | [3] -0.041 | [4] -0.002 | [5] 0.005 | [6] -0.033 | [7] 0.025 | [8] 0.035 | [9] 0.011 | [10] -0.005 | [11] -0.014 | [12] -0.01 | [13] 0 | [14] -0.026 | [15] 0 | [16] -0.004 | [17] -0.004 | [18] 0.066 | [19] -0.018 | [20] -0.033

DYNC1LI1 (UniProt Q9Y6G9)
inactive: [1] 0.001 | [2] 0.022 | [3] 0.007 | [4] 0.002 | [5] 0.009 | [6] 0.002 | [7] -0.03 | [8] -0.011 | [9] -0.01 | [10] -0.006 | [11] -0.009 | [12] 0.002 | [13] 0 | [14] -0.009 | [15] -0.008 | [16] 0.001 | [17] 0.007 | [18] -0.009 | [19] 0.027 | [20] 0.002

Two records drawn at random from the list so far, as already listed:
DPH2 (UniProt Q9BQC3)
inactive: [1] -0.029 | [2] -0.03 | [3] -0.041 | [4] -0.002 | [5] 0.005 | [6] -0.033 | [7] 0.025 | [8] 0.035 | [9] 0.011 | [10] -0.005 | [11] -0.014 | [12] -0.01 | [13] 0 | [14] -0.026 | [15] 0 | [16] -0.004 | [17] -0.004 | [18] 0.066 | [19] -0.018 | [20] -0.033

DYNC1LI1 (UniProt Q9Y6G9)
inactive: [1] 0.001 | [2] 0.022 | [3] 0.007 | [4] 0.002 | [5] 0.009 | [6] 0.002 | [7] -0.03 | [8] -0.011 | [9] -0.01 | [10] -0.006 | [11] -0.009 | [12] 0.002 | [13] 0 | [14] -0.009 | [15] -0.008 | [16] 0.001 | [17] 0.007 | [18] -0.009 | [19] 0.027 | [20] 0.002

Additional results follow:

DPH5 isoform 5 (UniProt Q9H2P9)
inactive: [1] 0.008 | [2] -0.028 | [3] -0.025 | [4] 0.066 | [5] -0.017 | [6] 0.074 | [7] 0.046 | [8] -0.027 | [9] 0.027 | [10] 0.009 | [11] 0.043 | [12] -0.027 | [13] -0.031 | [14] 0 | [15] 0.298 | [16] -0.034 | [17] -0.111 | [18] -0.007 | [19] -0.037 | [20] 0.04

EBP (UniProt Q15125)
inactive: [1] 0.055 | [2] 0.015 | [3] -0.073 | [4] -0.068 | [5] 0.01 | [6] -0.03 | [7] -0.128 | [8] 0.008 | [9] 0.047 | [10] 0.086 | [11] -0.023 | [12] 0.002 | [13] 0.004 | [14] -0.022 | [15] 0.02 | [16] 0.01 | [17] -0.025 | [18] -0.016 | [19] -0.152 | [20] 0.005

ECHS1 (UniProt P30084)
inactive: [1] 0.009 | [2] 0.006 | [3] -0.022 | [4] -0.009 | [5] 0.008 | [6] 0.007 | [7] 0.058 | [8] 0.002 | [9] 0.001 | [10] -0.02 | [11] 0.019 | [12] 0.005 | [13] 0.017 | [14] 0.019 | [15] -0.025 | [16] -0.02 | [17] 0.022 | [18] -0.009 | [19] 0.015 | [20] 0.011

EEF1A2 (UniProt Q05639)
inactive: [1] 0.015 | [2] 0.011 | [3] 0.021 | [4] -0.018 | [5] -0.035 | [6] -0.002 | [7] -0.034 | [8] 0.006 | [9] 0.006 | [10] -0.002 | [11] 0.015 | [12] -0.004 | [13] 0.012 | [14] 0.017 | [15] 0.052 | [16] -0.059 | [17] 0.036 | [18] -0.014 | [19] 0.018 | [20] 0

ECE1 (UniProt P42892)
inactive: [1] -0.021 | [2] 0.002 | [3] 0.03 | [4] -0.077 | [5] 0.008 | [6] -0.029 | [7] -0.013 | [8] -0.007 | [9] -0.019 | [10] -0.013 | [11] -0.01 | [12] 0.009 | [13] -0.02 | [14] -0.028 | [15] -0.045 | [16] 0 | [17] 0.005 | [18] -0.023 | [19] 0.014 | [20] -0.081

EEA1 (UniProt Q15075)
inactive: [1] -0.025 | [2] 0.015 | [3] 0.003 | [4] -0.011 | [5] -0.029 | [6] 0.005 | [7] 0.01 | [8] 0 | [9] 0 | [10] -0.015 | [11] -0.003 | [12] -0.007 | [13] -0.014 | [14] -0.025 | [15] -0.022 | [16] -0.014 | [17] -0.012 | [18] -0.005 | [19] -0.001 | [20] -0.009

DYNC1I2 isoform 2 (UniProt Q13409)
inactive: [1] -0.012 | [2] -0.032 | [3] 0.108 | [4] -0.088 | [5] -0.127 | [6] -0.002 | [7] 0.055 | [8] 0.005 | [9] -0.006 | [10] 0.01 | [11] -0.101 | [12] -0.032 | [13] -0.04 | [14] -0.032 | [15] -0.017 | [17] 0.083 | [18] -0.019 | [19] -0.047 | [20] 0.012

DRG2 (UniProt P55039)
inactive: [1] 0.03 | [2] -0.056 | [3] 0.028 | [4] 0.001 | [5] -0.005 | [6] -0.012 | [7] -0.044 | [8] 0.009 | [9] 0.008 | [10] 0.008 | [11] 0.008 | [12] -0.02 | [13] 0.006 | [14] -0.024 | [15] 0.037 | [16] -0.02 | [17] -0.035 | [18] 0.009 | [19] 0.006 | [20] -0.003

DSC2 (UniProt Q02487)
inactive: [1] 0.075 | [2] -0.101 | [3] 0.049 | [4] -0.034 | [5] 0.167 | [6] 0.043 | [7] 0.069 | [8] 0.071 | [9] -0.11 | [10] 0.01 | [11] 0.065 | [13] -0.039 | [14] -0.185 | [15] -0.059 | [17] 0.081 | [18] -0.082 | [19] -0.068

DYSF isoform 13 (UniProt O75923)
inactive: [1] 0.161 | [2] -0.01 | [3] 0.137 | [4] 0.06 | [5] -0.034 | [6] 0.101 | [7] 0.031 | [8] 0.085 | [9] 0.176 | [10] 0.025 | [11] 0.085 | [12] -0.099 | [13] -0.074 | [14] 0.104 | [15] 0.073 | [17] 0.038 | [18] -0.005 | [19] 0.047 | [20] -0.021
